Results from article PMC10485897.
Results are given in words; binding and its absence hold for the method and conditions named. Binding seen in cells or lysates may run through a third protein. Some entries that bind do so weakly or less than the wild type. Tags and fused reporters may be left off the sequences shown.

Molecular target: T1, EGFP-tagged Inversin (EGFP-INVS) (UniProt Q9Y283)
T1 sequence: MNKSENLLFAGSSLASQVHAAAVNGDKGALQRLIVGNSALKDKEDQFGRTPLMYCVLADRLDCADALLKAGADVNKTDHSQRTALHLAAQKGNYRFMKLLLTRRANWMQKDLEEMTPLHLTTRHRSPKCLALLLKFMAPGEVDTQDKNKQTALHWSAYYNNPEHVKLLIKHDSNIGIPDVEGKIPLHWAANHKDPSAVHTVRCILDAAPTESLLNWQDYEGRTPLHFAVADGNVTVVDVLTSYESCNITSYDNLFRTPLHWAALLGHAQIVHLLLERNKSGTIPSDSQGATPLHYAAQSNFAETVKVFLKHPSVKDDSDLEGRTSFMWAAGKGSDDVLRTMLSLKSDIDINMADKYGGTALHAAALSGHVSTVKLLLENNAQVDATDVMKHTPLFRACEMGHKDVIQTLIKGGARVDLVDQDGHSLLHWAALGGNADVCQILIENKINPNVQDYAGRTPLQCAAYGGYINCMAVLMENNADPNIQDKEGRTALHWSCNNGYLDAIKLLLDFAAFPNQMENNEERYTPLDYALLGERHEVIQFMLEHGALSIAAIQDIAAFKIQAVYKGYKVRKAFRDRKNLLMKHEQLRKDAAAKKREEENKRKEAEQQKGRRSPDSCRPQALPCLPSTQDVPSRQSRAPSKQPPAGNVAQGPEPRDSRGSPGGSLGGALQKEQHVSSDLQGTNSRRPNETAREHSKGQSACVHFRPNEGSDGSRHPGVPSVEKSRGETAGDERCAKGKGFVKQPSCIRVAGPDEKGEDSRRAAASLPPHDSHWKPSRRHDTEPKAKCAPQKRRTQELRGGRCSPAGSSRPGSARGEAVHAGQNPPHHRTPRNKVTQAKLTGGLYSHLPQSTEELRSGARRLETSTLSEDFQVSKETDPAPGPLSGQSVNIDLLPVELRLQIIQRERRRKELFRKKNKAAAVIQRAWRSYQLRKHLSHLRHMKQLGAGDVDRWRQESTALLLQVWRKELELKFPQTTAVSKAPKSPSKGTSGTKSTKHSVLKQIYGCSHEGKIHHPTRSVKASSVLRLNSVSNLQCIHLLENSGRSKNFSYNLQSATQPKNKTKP
Assay: pull-down; GFP-pulldown with GFP-Trap-MA magnetic agarose beads (ChromoTek) from HEK293T cells co-transfected for 48 h and lysed in RIPA buffer (50 mM Tris-HCl pH 8.0, 150 mM NaCl, 1% NP-40, 0.5% sodium deoxycholate, 0.1% SDS); detection by western blotting

B1: MYC-BBS6 (protein, UniProt Q9NPJ1 1-570)
chain: MSRLEAKKPSLCKSEPLTTERVRTTLSVLKRIVTSCYGPSGRLKQLHNGFGGYVCTTSQSSALLSHLLVTHPILKILTASIQNHVSSFSDCGLFTAILCCNLIENVQRLGLTPTTVIRLNKHLLSLCISYLKSETCGCRIPVDFSSTQILLCLVRSILTSKPACMLTRKETEHVSALILRAFLLTIPENAEGHIILGKSLIVPLKGQRVIDSTVLPGILIEMSEVQLMRLLPIKKSTALKVALFCTTLSGDTSDTGEGTVVVSYGVSLENAVLDQLLNLGRQLISDHVDLVLCQKVIHPSLKQFLNMHRIIAIDRIGVTLMEPLTKMTGTQPIGSLGSICPNSYGSVKDVCTAKFGSKHFFHLIPNEATICSLLLCNRNDTAWDELKLTCQTALHVLQLTLKEPWALLGGGCTETHLAAYIRHKTHNDPESILKDDECTQTELQLIAEAFCSALESVVGSLEHDGGEILTDMKYGHLWSVQADSPCVANWPDLLSQCGCGLYNSQEELNWSFLRSTRRPFVPQSCLPHEAVGSASNLTLDCLTAKLSGLQVAVETANLILDLSYVIEDKN
- binding: binds
